Measurements from PubChem BioAssay AID1508600 (Functional Genomics Laboratory (NCATS/FGL), 2020).
About 3,700 (7%) of roughly 53,000 sequences were called active.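 Rule for the calls: active = gene knockdowns whose robust z-score for IL-1 alpha signal is at least 2 or at most -2, so actives lie on both sides; inactive = the rest.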 Some of the results follow.

Test: Components of the Cytosolic LPS Sensing Pathway: Gene Identification via Genome-wide siRNA Screen
Conditions: RAW264.7 macrophages, IL-1a HTRF, actives lie on both sides, screened at 100 nM (by protocol), cells primed 5 h with Pam3CSK4 first
Description: Non-canonical inflammasome activation by cytosolic LPS is a critical component of the host response to Gram-negative bacterial infection, however we lack a comprehensive understanding of the cellular processes that control this pathway. Here we describe a genome-wide siRNA screen to identify genes regulating the mouse macrophage IL-1 alpha response to cytosolic LPS.
RAW264.7 cells were maintained in complete DMEM media, comprising DMEM with 4.5 g/L glucose, 10% FBS (Gemini Bio-Products, West Sacramento, CA), 2 mM Glutamine (Lonza) and 20 mM HEPES (Lonza), hereafter complete DMEM.
The RNAi screen was conducted in 384-well format using the Ambion Silencer Mouse Genome siRNA Library (#4391425), which consists of three unique, nonoverlapping, nonpooled siRNAs for each of 17,000 gene targets. siRNA reagents ([…]) were stamped into 384-well white flat-bottom microplates (Corning, 3570) using a Velocity11 VPrep liquid handling system (Agilent) integrated into a BioCel robotic platform (Agilent) in columns 1-22, leaving columns 23-24 empty for negative (Ambion, Negative control #1) and positive (mouse Casp4) controls, respectively. The median value of each plate's negative control column was used to normalize sample wells, and the positive control was used to assess transfection efficiency and assay performance.
Lipofectamine RNAiMAX Transfection Reagent ([…]; Invitrogen) was added in […] serum-free, antibiotic-free media to plate wells using a Thermo Scientific Matrix WellMate and Microplate Stacker. Plates were incubated for 45 min at room temperature to allow for the sufficient formation of siRNA-lipid complexes. Cells were seeded at a density of 1x10^4 cells per well in 20 microL media containing 20% (vol/vol) FBS without antibiotics. The final concentration of siRNA in each well was 100 nM. Cells were cultured for 48h at 37 degrees C in 5% CO2 before addition of […] of TLR ligand Pam3CSK4 for 5 hours. The medium was then removed, replaced with […] growth media and cell were transfected with […] of LipidA and TransIT-TKO (Mirus) for 24 hour. At the end of the LipidA treatment, […] of supernatant was transferred to a 384 Greiner Bio-one non-binding low volume plate and […] of IL-1a HTRF reagent (Cisbio, 62MIL1APEH) was added and incubated at room temperature overnight. The plates were read on an EnVision plate reader (PerkinElmer). Cell viability was measured by adding 20ul Cell Titer Glo to the original plate and running a luminescence read on the EnVision. The quantified IL-1a signal for each siRNA gene-targeted well was divided by the median of the negative control wells and multiplied by 100 to achieve a negative control normalized value for each well/siRNA. This normalized value was then used to generate a robust z-score by first taking the log of each value and then by subtracting the median and dividing by the […].

z-score, inactive:
ACUGACCUUUGUUCCACAUTT against Vmn1r10 1.59
GGAAUGGAAAAACAAAAAGTT against Slc45a2 -0.756
GGAUGAAGACCCAUAUGUGTT against Ap1b1 -0.287
GGUGAGGAGGUACCAGGUATT against Nthl1 -1.61
CGUCAUUGGCCUUCAAAUGTT against Tagln -0.645
CCAUCAUGAACACCAAGCUTT against Olfr464 -1.26
GGAUGGGCAAAAAGUUGACTT against Timm10 -0.689
GGAGAAAGCUACUUAUAAGTT against Fbxo17 -0.541
GGUUUUGAGCAAAAUUCUATT against Nrd1 0.985
CCGUUGGAUAAUGUCACAUTT against Stx4a 1.73
GCUUAUUGUCAUGAUCAUATT against Hsd17b7 -0.0998
GGAGCUGAUUUUCCUAAAGTT against Clec2i 0.358
GGCGUGUUUUAUGUAUAACTT against Acsl3 -0.099
GCUCGUCAGAGACAAGCAUTT against Ptcd2 1.79
GCCCAAGGAUUGGCAAAAGTT against Foxj1 -0.678
CGAAAGAGAGAGUGGGUGATT against Cdh3 -0.572
CCUACCUCUUGUUGGAAAATT against Fbxo15 -0.134
GCAAAUGGUGCAUACGUGATT against Slc35d1 0.211
GCUGAAUGCCAUAAACAGATT against Srms 0.87
GGCAAGCAUAAAGAUGAAUTT against Sema6d -0.242
GGUGUUUACUCCGUACCCATT against Tbrg4 -2
GGAUCAAUAAGGAAUCUCUTT against Ugp2 -0.417
GCAGUUGGUAUUGUUAACUTT against Maml1 -0.0252
GGUGAUGAUCUUGUGCCACTT against Rtp4 -0.367
GGUGUGGAGUAUGUAUGCUTT against Aplp1 -1.11
GGAGAUGGUUGGAUCAUUCTT against Arhgef25 -0.158
GGACCUAUUACACACUUGUTT against Mtfmt -0.211
GGAAGCACUAUAGCCUCAGTT against Olfr39 1.68
GGUAAGUAUACAAAGAUACTT against Cdc27 -1.41
GGACCUGUAUUCACACCUUTT against Wdr61 0.0931
GGCCACAAUUAAUUUUUUGTT against Luzp2 -0.541
GCAACAAUGUGGUUCCUAUTT against Rab11a 0.616
GGACCUGGAGAAAUUGAAGTT against Nlrp6 1.82
CCUACGAGUAUUCAGAAAGTT against Snx13 -1.15
CCUCUUUUUACUUGCCUAATT against Rassf1 0.65
GCUGGAGACAUUCGGUGAUTT against Efcab12 -0.227
CCUCGACUUUUAUUUGGAUTT against Smg6 -0.0389
CCACCCAUGAACUCACCAUTT against Pcbp1 -1.99
GGAAAAAGAUGCUUUCACATT against Ccdc113 -0.518
CGUCACUGAGAGAUUCAAATT against Elmod1 0.965
CCUGACAACUAACGAAGAUTT against Zdhhc18 -0.254
CCUGCAUAUUGGAUUAAUATT against Alkbh5 0.0291
GGCAACACACUGUCAUUUCTT against Il9 -1.06
GGCAGAGUCUCUUUCGAAGTT against Foxh1 0.358
GGCGACGAAGUCACCUAUATT against Carhsp1 -0.0404
CCUCUCCAUACUCACCAUGTT against Tspan17 -0.473
GGCUCUUCUGUCACCUUCATT against Prr3 0.234
GGCCUGAGCUGAUUGAGUATT against Actn4 -0.402
GGAGAAACAGAUUGAGCAGTT against Atp6v1e2 1.31
GCUGGUAGAAUACUAAGUATT against Metrn 1.05
GGAGAGCUUUCUGAACUGUTT against Amigo2 1.05
GCUAUGUCAUGGAAAGAAUTT against Pik3c2a -0.34
GCAGAGUGUGGUUAGUGGGTT against Cobl -0.218
GGGAGUCUGGUGGAUUGAUTT against Rln1 0.0253
GGAUCAAGUUAUUUCUUACTT against Olfr1156 -0.0277
CCGACACGUUCUCAAUGUCTT against Gss -0.496
GCACAGAUAUGAGAUCUGUTT against Wwtr1 0.564
CGCAGGUGUAACACUCAUUTT against Ifitm3 -0.918
GGCUUUUGCUGCUAGAGGUTT against Szt2 -1.19
GGCAGAAACCAACCAACACTT against Gm9734 1.46
GGAAAAAAGCAAGAAAGACTT against Tssk4 -0.909
GGUGACCACUUUAAACUUCTT against Znhit1 -0.496
GGACCAUUUGGUUAAUGCCTT against Fkbp3 -1.19
GGAGUGGAUGACAUGAUCCTT against Myo7b 0.806
GGUCGGAGUACAGUUCAAATT against Pwwp3a 0.699
GGCAACUAUGAAAAAUAGUTT against 1700065D16Rik -0.111
GCGGGCUCACCAUAAUGCATT against Max 1.4
GGAUGUCCGGAAGAUGUUUTT against Celf3 -0.284
GGAAAAAUCCAGCACAUCCTT against Vps29 0.00562
GGAGAGCAAGGAAGUACUATT against Speer4b -1.62
GGUGAAAGCAGCCAUUAAATT against Akr1a1 -0.35
GCCGCCAGUACUAUUCUAUTT against Tctn3 0.97
GGAGACUCCAACUACUUCATT against Sycp1 1.23
GGAGUUUCACUACAGCCGGTT against Cdx1 -0.879
GGUCUACAGGCCUAUGUUGTT against Iba57 0.914
CCCAGGGAGAAUUGACUUGTT against Sertad1 0.0114
GGUGAUCAACAGGAGUCUGTT against Rgs17 -0.951
GGCUGAGACCUUUUGGUUGTT against Ccdc58 0.327
GCUUCGUGGCUUUUUAUGATT against Dlgap3 -0.788
GGGUAAAGUACAAUAAACUTT against Atp1b2 0.24
GGGUUUGACUGUACAGUACTT against Adamts4 -1.29
GGAGUCUAAUAAAACAAGATT against Ankrd16 1.17
GCAGUUCACGCAGUGGAAGTT against Fam25c 1.3
GGUAAAAGAUGAGAAAAACTT against Plekho1 -0.523
GGUUUAUUUAGCCUUGCUUTT against Dhx33 0.704
GGACCCUUAGGAAAUGUGCTT against S100a10 -1.13
CAAAAAUAUCUACAGAGUCTT against Olfr494 0.207
GCGAACUACACUUACUACATT against Aqp12 -0.525
CGACAAUACUCUCUUCAAGTT against Fst 0.691
GCGAUUGAGAAAGAAUGCGTT against Mrpl45 0.34
CCACUGGUUCACCUAUAAUTT against Psma5 0.092
CCAAUUGAGAAAAGUACAGTT against Lrp4 -0.3
GGGUGAAUAAAACUUUGAATT against Haghl -0.457
CCUGCUUUGUAUCUCCUCCTT against Csprs 0.184
GCAAAGUCCAGUGAACAACTT against Gtse1 -1.15
GCUAUGGGAUAUGAGCUGATT against Antkmt -0.75
GGUGGCCAUCAAAGUAAUCTT against Pim2 1.44
GCAGUUCUCAUACUAUCAUTT against Arhgap33os 1.6

As a working copy, part of the list above:
z-score, inactive:
GCUGAAUGCCAUAAACAGATT against Srms 0.87
GGCAAGCAUAAAGAUGAAUTT against Sema6d -0.242
GGUGUUUACUCCGUACCCATT against Tbrg4 -2
GGAUCAAUAAGGAAUCUCUTT against Ugp2 -0.417
GCAGUUGGUAUUGUUAACUTT against Maml1 -0.0252
GGUGAUGAUCUUGUGCCACTT against Rtp4 -0.367
GGUGUGGAGUAUGUAUGCUTT against Aplp1 -1.11
GGAGAUGGUUGGAUCAUUCTT against Arhgef25 -0.158
GGACCUAUUACACACUUGUTT against Mtfmt -0.211
GGAAGCACUAUAGCCUCAGTT against Olfr39 1.68
GGUAAGUAUACAAAGAUACTT against Cdc27 -1.41
GGACCUGUAUUCACACCUUTT against Wdr61 0.0931
GGCCACAAUUAAUUUUUUGTT against Luzp2 -0.541
GCAACAAUGUGGUUCCUAUTT against Rab11a 0.616
GGACCUGGAGAAAUUGAAGTT against Nlrp6 1.82
CCUACGAGUAUUCAGAAAGTT against Snx13 -1.15
CCUCUUUUUACUUGCCUAATT against Rassf1 0.65
GCUGGAGACAUUCGGUGAUTT against Efcab12 -0.227
CCUCGACUUUUAUUUGGAUTT against Smg6 -0.0389

Next part.

z-score, active:
GGAAUUUUAUGCCAAGAAUTT against Hip1r -3.89
GGAAAAGAAACCAGUUUCUTT against C230012O17Rik -2.07
GGAAAUAAUUCACUCACCATT against Eya1 -2.99
CCGUGUAAGGUGUGGAGUGTT against Mcat -2.27
GCUCUAGGGUCGUAAUGUUTT against Ralb -2.33
CCAUAUAACUGCCAAUAAUTT against Ankrd7 -2.02
GGACACAAGUUUUCAGAUCTT against Elmod2 3.02
GCCCUACCUUACCUGAUACTT against Rab17 2.03
GGAACCAGGUAGCAGAUCUTT against Cdk2ap2 -2.61
